# Values from PubChem BioAssay AID504774 (Drosophila RNAi Screening Center, 2011).
# Aim: 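Genes required for cells to withstand methyl methanesulphonate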 (primary screen)
# Cells: Drosophila Kc167 cells
# Reagent: long dsRNA against Drosophila genes, about 0.25 µg dsRNA per well
# Timing: about 6 days: 3 days knock-down, then 3 days with or without MMS
# Conditions: methyl methanesulphonate 0.004% (w/v) for 3 days after knock-down
# Measured: 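ATP-dependent luminescence as a measure of live cells in MMS-exposed wells, quantile normalised within each plate, with replicate values also given as a mean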
# Direction: mean viability with MMS and viability with MMS: higher = more surviving cells after MMS
# In all, the deposit lists about 23,000 reagents; below is a random part of those with a known target gene and a result. 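Values are quantile-normalised luminescence on an arbitrary scale; higher means more cells surviving MMS.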 The numbers tell different reagents against one gene apart. A plus sign joins genes that one reagent is predicted to hit.
predicted target,reagent,mean viability with MMS,"viability with MMS, replicate 1","viability with MMS, replicate 2"
JhI-26 (GeneID 36819),1,3.48e6,3.90e6,3.98e6
CheB93a (GeneID 42540),1,3.64e6,4.07e6,4.18e6
Crys (GeneID 34604),1,3.53e6,4.00e6,4.02e6
psh (GeneID 32832),1,3.45e6,3.90e6,3.91e6
Dpp10 (GeneID 33923),1,3.41e6,3.82e6,3.97e6
Dpp10 (GeneID 33923),2,3.59e6,4.09e6,4.02e6
CG12159 (GeneID 35741),1,3.59e6,4.13e6,3.98e6
Fancd2 (GeneID 2768674),1,3.58e6,4.13e6,3.98e6
Fancd2 (GeneID 2768674),2,3.49e6,3.97e6,3.98e6
CG34326 (retired record) (GeneID 5740223),1,3.60e6,4.11e6,4.02e6
regucalcin (GeneID 32165),1,3.71e6,4.23e6,4.09e6
regucalcin (GeneID 32165),2,3.62e6,4.20e6,3.99e6
peg (GeneID 50050),1,3.58e6,3.94e6,4.17e6
spel1 (GeneID 34842),1,3.59e6,4.01e6,4.14e6
CG6709 + Hez,1,3.55e6,3.96e6,4.09e6
CG6709 + Hez,2,3.65e6,4.08e6,4.15e6
rdgC (GeneID 40224),1,3.75e6,4.47e6,3.92e6
sba (GeneID 42824),1,3.13e6,3.62e6,3.67e6
sba (GeneID 42824),2,3.61e6,4.01e6,3.73e6
nab (GeneID 3346237),1,3.87e6,4.28e6,4.39e6
nab (GeneID 3346237),2,3.48e6,3.90e6,4.00e6
PlexB (GeneID 43766),1,3.54e6,4.00e6,4.02e6
RhoGAP1A (GeneID 5740235),1,3.63e6,4.10e6,4.08e6
RhoGAP1A (GeneID 5740235),2,3.66e6,4.10e6,4.13e6
CG16781 (GeneID 31315),1,3.46e6,3.86e6,3.99e6
Nepl18 (GeneID 43410),1,3.59e6,4.09e6,4.05e6
Nup54 (GeneID 36360),1,3.41e6,3.86e6,3.81e6
Su(fu) (GeneID 41565),1,3.57e6,4.03e6,4.09e6

4 entries from above in another layout.
{"predicted target":"RhoGAP1A (GeneID 5740235)","reagent":2,"mean viability with MMS":3.66e6,"viability with MMS, replicate 1":4.10e6,"viability with MMS, replicate 2":4.13e6}
{"predicted target":"CG16781 (GeneID 31315)","reagent":1,"mean viability with MMS":3.46e6,"viability with MMS, replicate 1":3.86e6,"viability with MMS, replicate 2":3.99e6}
{"predicted target":"Nepl18 (GeneID 43410)","reagent":1,"mean viability with MMS":3.59e6,"viability with MMS, replicate 1":4.09e6,"viability with MMS, replicate 2":4.05e6}
{"predicted target":"Nup54 (GeneID 36360)","reagent":1,"mean viability with MMS":3.41e6,"viability with MMS, replicate 1":3.86e6,"viability with MMS, replicate 2":3.81e6}
